Assay results: the supplement of paper PMC3334620
The full ranking holds about 33,000 sequences; the median of “E-score (-0.5 to 0.5)” is about -0.016, and the highest 2% start at about 0.3. Some of the results follow.

Target: T1, Yer184c (UniProt P39961)
T1 sequence: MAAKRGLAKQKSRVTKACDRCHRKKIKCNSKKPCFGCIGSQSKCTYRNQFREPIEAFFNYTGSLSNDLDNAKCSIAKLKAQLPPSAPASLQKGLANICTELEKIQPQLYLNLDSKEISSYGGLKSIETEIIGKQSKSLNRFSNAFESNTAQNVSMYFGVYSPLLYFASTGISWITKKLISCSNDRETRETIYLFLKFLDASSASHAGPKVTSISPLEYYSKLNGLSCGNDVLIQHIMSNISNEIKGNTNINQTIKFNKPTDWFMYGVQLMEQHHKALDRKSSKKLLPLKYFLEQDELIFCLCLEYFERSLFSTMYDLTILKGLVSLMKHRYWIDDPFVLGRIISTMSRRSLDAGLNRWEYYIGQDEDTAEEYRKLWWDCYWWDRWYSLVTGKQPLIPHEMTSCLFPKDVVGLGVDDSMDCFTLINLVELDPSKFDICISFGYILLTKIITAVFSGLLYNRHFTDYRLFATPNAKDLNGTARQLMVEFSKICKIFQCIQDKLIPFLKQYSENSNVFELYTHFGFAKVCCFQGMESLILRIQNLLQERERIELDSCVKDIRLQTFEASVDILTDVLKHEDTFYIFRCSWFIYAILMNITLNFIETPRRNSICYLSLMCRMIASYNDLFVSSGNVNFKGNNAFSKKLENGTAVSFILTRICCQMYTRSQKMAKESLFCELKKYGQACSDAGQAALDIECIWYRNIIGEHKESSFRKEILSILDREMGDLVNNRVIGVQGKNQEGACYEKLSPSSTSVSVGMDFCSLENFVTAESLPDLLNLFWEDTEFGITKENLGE
Experiment: PBM E-score (8-mer binding enrichment) (E-score (-0.5 to 0.5)); higher = stronger / more preferred TF binding
Settings: protein concentration: 100 nM; construct: GST-full length
Procedure: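 Universal 'all 10-mer' protein binding microarrays (Agilent AMADID 015681) probed with GST-tagged S. cerevisiae TFs (full-length or DBD) made by in vitro transcription/translation (PURExpress), about 100-200 nM. Bound TF was detected with fluorescent anti-GST. Each ungapped 8-mer (which stands for itself and its reverse complement) is scored by the PBM enrichment score (E-score), a modified Wilcoxon-Mann-Whitney statistic from -0.5 to +0.5, computed with the Universal PBM Analysis Suite. Scale: above 0.35 generally sequence-specific binding.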

Sequence | PBM E-score
AGCTCACG | -0.0984
ACAAAGCA | 0.288
CGCTACAC | -0.235
ATACCTGC | -0.23
CCATTCAA | 0.136
AGCTAATG | -0.0806
ATCGTAAT | -0.0295
CGAGACAA | -0.0254
CACTATAC | -0.0342
GGAGACAC | -0.0444
AATGTGTA | -0.0922
AGGGACGG | -0.32
CGCCGCGC | 0.0984
TATCGCAA | 0.00896
CAGAAGCC | -0.0533
GAGTGAAC | 0.0123
ATCCTAAT | 0.108
ACCCAGCA | -0.121
ATCATCTA | 0.00667
CCTTGTTC | -0.0393
CACCCAGA | -0.0698
CATTGGCG | -0.163
ATAGTGAC | -0.0492
GCAGCGAA | 0.128
ATTCTAGG | 0.0213

Sequence | PBM E-score
AGGAACAG | -0.19
CTACAGAC | -0.202
ATCAAATA | 0.0663
ATGTTTTC | 0.233
GATGTGCA | -0.157
ATGGTTGC | -0.247
ATGACGTA | -0.0538
CAAGAACG | 0.084
CCGCGGAC | 0.295
ATTGGCCC | -0.269
AACTTAAA | 0.157
ATACTACA | 0.153
CACCAGCG | -0.246
AATGAGAG | -0.199
AACACTGT | -0.00284
AACGTTTC | 0.153
CAGTAAAG | -0.177
GGACGACA | 0.131
CGCAGAAA | 0.0456
GGTAGTGA | -0.0712
TCGTCTCA | -0.0379
GCATTCGA | -0.132
CAGCAAAA | -0.0176
CCCCCGCG | -0.109
CTCTTACC | 0.2

Sequence | PBM E-score
CACCAACG | -0.113
AAAGCTAC | -0.162
CTCCTCTA | -0.197
GACGGAAA | 0.213
CTTGCCCA | -0.0923
AGGAAACC | 0.116
AGTCAGTG | -0.206
ACACGGGG | -0.0862
AAATTTCG | 0.146
AGCAGCCT | -0.307
CCGTAAAA | 0.243
GGGTAAAA | 0.143
GAAGTACC | 0.0817
GTCTCGCA | -0.0807
GGCCCCCC | -0.289
GAAATAGA | 0.249
CAGTCGTA | 0.0279
ACATAGGC | -0.133
ATAGCCAC | -0.0617
CCGATGTA | -0.0382
CTTCTACC | -0.103
AAAGTACC | 0.0107
TATAGAAA | 0.132
AGACCGTC | -0.122
CCTCCGCG | 0.123

Sequence | PBM E-score
GTTCGCAA | 0.168
ACTATAGT | 0.207
AATATCAG | 0.067
CTGCGGGC | -0.00643
CTGCGGCC | 0.08
CTTAAAAC | 0.248
CATTAAAG | 0.0705
CGCTAGAC | -0.233
AATCGGGT | 0.173
ACAACACC | 0.0736
AAGGCCTG | -0.215
AGCGGGGC | -0.154
AGCGAATG | -0.173
ACCATACG | -0.0112
GGTTTACA | 0.118
AAACATGC | -0.00781
AGTAACGC | -0.105
ATTAGCTG | -0.00785
GCTTCAGA | 0.0432
ATCCAAAA | 0.215
CCATAAGA | -0.0477
CTCATGAG | -0.0289
GAACTAGC | -0.00217
CAGAAACG | 0.169
GCGTCACC | -0.329

Copied from the list.
Value for ACTATAGT under PBM E-score: 0.207
Value for CTGCGGGC under PBM E-score: -0.00643
Value for ACAACACC under PBM E-score: 0.0736
Value for AAGGCCTG under PBM E-score: -0.215
Value for ACCATACG under PBM E-score: -0.0112

Later entries.

Sequence | PBM E-score
AACCTTCC | -0.0555
CTGAAATA | 0.118
ATCGAAAA | 0.172
AAAGTTTA | 0.214
TAATTACA | 0.169
CGGGCGCA | 0.106
GATGAAAC | 0.126
AGCCGCTG | 0.0377
ACCCGTGA | -0.063
CACCTTCA | -0.287
ACCACACC | -0.227
CTGCTAAC | -0.0371
AAGGAGGT | -0.248
GGGACCCC | -0.348
CTCCTCGC | -0.236
AGCCGCTC | 0.0879
ATATGCGG | 0.111
CAAGTACC | 0.0757
ACGGAGTG | 0.0134
AGCGCCAT | -0.249
AGATCCCT | -0.229
AACTCTAG | -0.145
AGGTCGGC | 0.0664
AAAATGAG | -0.0562
CACAGGGG | -0.376

Sequence | PBM E-score
CACTGTGC | -0.0193
AATGACGG | 0.19
TGCGAACA | 0.06
GGGGAAGA | -0.148
ATCGCTAG | -0.0934
ACCATCCC | -0.0549
CTTCCCTA | -0.13
ACTCCAAA | -0.126
AGTTGCCA | -0.0248
CCTGTCGA | -0.093
CTGGTAAC | 0.00552
GCACCCAC | 0.0359
ATAAGCGG | -0.122
AATCTGGG | -0.209
AAGGGGAA | -0.101
AGCTAGGA | 0.00172
AACAGACT | -0.0245
ACTAGGAT | 0.0501
CCCGTACC | 0.0297
AAGACAGT | 0.0136
AGTAGAAG | -0.127
ACAGGGGC | -0.213
CAGTGGTA | -0.206
CCCCGAAC | -0.00623
AGTATTTC | 0.277

Sequence | PBM E-score
GATTCTCC | -0.0624
TATGTGGA | 0.124
ATGACCGG | 0.00805
CCCCTGAC | -0.0911
AAACTCGT | -0.061
CCCTTCAA | -0.0283
ACTCGAGC | -0.103
AAATCGGT | 0.0224
TAGGAGAA | -0.118
AAACTGAG | -0.0387
AACGATCA | -0.0294
CAGTTAGC | -0.308
GTGGCCGA | 0.123
GTGGATTA | -0.0384
AGCAGGAC | 0.00291
CACTCAGA | 0.0188
CCATAGTA | -0.0362
AGTGAACG | -0.0272
CTGCTACC | -0.153
ATCGTGAC | 0.0587
CAATTACC | -0.0806
ATTCTCGA | 0.0246
